# Data: patent publication US20050175976A1, “Meiosis activating sterol augments implantation rate” (priority 1999, published 2005)
# At least one structure is not confirmed: it was looked up by name or label, or the drawing left a doubt.
# Test system: mouse cumulus enclosed oocytes
# Assay: Endogenous production of sterols (3H-mevalonate incorporation) in mouse cumulus enclosed oocytes exposed to AY9944-A-7
# Type: cell-based
# Settings: 10 μM AY, 24 h, radioactivity per CEO test:control
compound,measurement,value
"Cl.Cl.Clc1ccccc1CNCC1CCC(CNCc2ccccc2Cl)CC1 (centres unmarked) [AY, AY9944-A-7]","Ratio of radioactivity incorporated in Cholesterol, CEO cultured with and without AY",1:44
same,"Ratio of radioactivity incorporated in FF-MAS, CEO cultured with and without AY",11:1
same,"Ratio of radioactivity incorporated in Lanosterol, CEO cultured with and without AY",2.3:1
same,"Ratio of radioactivity incorporated in Progesterone, CEO cultured with and without AY",2.8:1
same,"Ratio of radioactivity incorporated in T-MAS, CEO cultured with and without AY",1:5.2
